Measurements from the supplement of paper PMC8728848.
The list shows a part of the results.

Experiments:
Test in all cases: glycan array binding signal (z-score within array); higher = stronger binding
Details in all cases: glycan notation: IUPAC condensed, linker removed
[1] = biological target: Neu5Ac(a2-3)Gal(b1-4)[Fuc(a1-3)]GlcNAc(b1-3)Gal
Outline: (§1)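 Glycan array data came from 3228 arrays in the Consortium for Functional Glycomics database, and only arrays with an available protein sequence were kept. Glycan names were put into IUPAC-condensed notation, and columns mapping to the same glycan were averaged. The binding signal is a within-array Z-score, averaged across arrays of one protein sequence run at different concentrations or buffers and across linkers. A negative Z-score can be read as non-binding.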

[2] = biological target: Neu5Ac(a2-3)Gal(b1-4)[Fuc(a1-3)]GlcNAc(b1-3)Gal(b1-4)GlcNAc
Outline: as §1

[3] = biological target: Neu5Ac(a2-3)Gal(b1-4)[Fuc(a1-3)]GlcNAc(b1-3)Gal(b1-4)[Fuc(a1-3)]GlcNAc(b1-3)Gal(b1-4)[Fuc(a1-3)]GlcNAc
Outline: as §1

[4] = biological target: Neu5Ac(a2-3)Gal(b1-4)[Fuc(a1-3)]GlcNAc(b1-3)GalNAc
Outline: as §1

[5] = biological target: Neu5Ac(a2-3)Gal(b1-4)[Fuc(a1-3)]GlcNAc(b1-6)[Gal(b1-3)]GalNAc
Outline: as §1

[6] = biological target: Neu5Ac(a2-3)Gal(b1-4)[Fuc(a1-3)]GlcNAc(b1-6)[Neu5Ac(a2-3)Gal(b1-3)]GalNAc
Outline: as §1

[7] = biological target: Neu5Ac(a2-3)Gal(b1-4)[Fuc(a1-3)]GlcNAc6S
Outline: as §1

[8] = biological target: Neu5Ac(a2-3)Gal6S(b1-4)GlcNAc
Outline: as §1

[9] = biological target: Neu5Ac(a2-3)Gal6S(b1-4)[Fuc(a1-3)]GlcNAc
Outline: as §1

Neu5Ac(a2-3)GalNAc = biological target: Neu5Ac(a2-3)GalNAc
Outline: as §1

[10] = biological target: Neu5Ac(a2-3)GalNAc(b1-4)GlcNAc
Outline: as §1

[11] = biological target: Neu5Ac(a2-3)[GalNAc(b1-4)]Gal(b1-4)Glc
Outline: as §1

[12] = biological target: Neu5Ac(a2-3)[GalNAc(b1-4)]Gal(b1-4)GlcNAc
Outline: as §1

[13] = biological target: Neu5Ac(a2-3)[GalNAc(b1-4)]Gal(b1-4)GlcNAc(b1-3)GalNAc
Outline: as §1

[14] = biological target: Neu5Ac(a2-3)[Neu5Ac(a2-6)]GalNAc
Outline: as §1

Neu5Ac(a2-6)Gal = biological target: Neu5Ac(a2-6)Gal
Outline: as §1

Neu5Ac(a2-6)Gal(b1-4)Glc = biological target: Neu5Ac(a2-6)Gal(b1-4)Glc
Outline: as §1

[15] = biological target: Neu5Ac(a2-6)Gal(b1-4)GlcNAc
Outline: as §1

[16] = biological target: Neu5Ac(a2-6)Gal(b1-4)GlcNAc(b1-2)Man(a1-3)Man(b1-4)GlcNAc(b1-4)GlcNAc
Outline: as §1

[17] = biological target: Neu5Ac(a2-6)Gal(b1-4)GlcNAc(b1-2)Man(a1-3)[Gal(b1-4)GlcNAc(b1-2)Man(a1-6)]Man(b1-4)GlcNAc(b1-4)GlcNAc
Outline: as §1

[18] = biological target: Neu5Ac(a2-6)Gal(b1-4)GlcNAc(b1-2)Man(a1-3)[GlcNAc(b1-2)Man(a1-6)]Man(b1-4)GlcNAc(b1-4)GlcNAc
Outline: as §1

[19] = biological target: Neu5Ac(a2-6)Gal(b1-4)GlcNAc(b1-2)Man(a1-3)[GlcNAc(b1-2)Man(b1-4)GlcNAc(b1-2)Man(a1-6)]Man(b1-4)GlcNAc(b1-4)GlcNAc
Outline: as §1

[20] = biological target: Neu5Ac(a2-6)Gal(b1-4)GlcNAc(b1-2)Man(a1-3)[Man(a1-6)]Man(b1-4)GlcNAc(b1-4)GlcNAc
Outline: as §1

[21] = biological target: Neu5Ac(a2-6)Gal(b1-4)GlcNAc(b1-2)Man(a1-3)[Neu5Ac(a2-6)Gal(b1-4)GlcNAc(b1-2)Man(a1-6)]Man(b1-4)GlcNAc(b1-4)GlcNAc
Outline: as §1

[22] = biological target: Neu5Ac(a2-6)Gal(b1-4)GlcNAc(b1-2)Man(a1-6)Man(b1-4)GlcNAc(b1-4)GlcNAc
Outline: as §1

[23] = biological target: Neu5Ac(a2-6)Gal(b1-4)GlcNAc(b1-2)Man(a1-6)[Gal(b1-4)GlcNAc(b1-2)Man(a1-3)]Man(b1-4)GlcNAc(b1-4)GlcNAc
Outline: as §1

[24] = biological target: Neu5Ac(a2-6)Gal(b1-4)GlcNAc(b1-2)Man(a1-6)[GlcNAc(b1-2)Man(a1-3)]Man(b1-4)GlcNAc(b1-4)GlcNAc
Outline: as §1

[25] = biological target: Neu5Ac(a2-6)Gal(b1-4)GlcNAc(b1-2)Man(a1-6)[Man(a1-3)]Man(b1-4)GlcNAc(b1-4)GlcNAc
Outline: as §1

[26] = biological target: Neu5Ac(a2-6)Gal(b1-4)GlcNAc(b1-3)Gal(b1-3)GlcNAc
Outline: as §1

[27] = biological target: Neu5Ac(a2-6)Gal(b1-4)GlcNAc(b1-3)Gal(b1-4)GlcNAc
Outline: as §1

[28] = biological target: Neu5Ac(a2-6)Gal(b1-4)GlcNAc(b1-3)Gal(b1-4)GlcNAc(b1-3)Gal(b1-4)GlcNAc
Outline: as §1

[29] = biological target: Neu5Ac(a2-6)Gal(b1-4)GlcNAc(b1-3)Gal(b1-4)[Fuc(a1-3)]GlcNAc(b1-3)Gal(b1-4)[Fuc(a1-3)]GlcNAc
Outline: as §1

[30] = biological target: Neu5Ac(a2-6)Gal(b1-4)GlcNAc(b1-3)GalNAc
Outline: as §1

[31] = biological target: Neu5Ac(a2-6)Gal(b1-4)GlcNAc6S
Outline: as §1

Neu5Ac(a2-6)GalNAc = biological target: Neu5Ac(a2-6)GalNAc
Outline: as §1

[32] = biological target: Neu5Ac(a2-6)GalNAc(b1-4)GlcNAc
Outline: as §1

[33] = biological target: Neu5Ac(a2-6)GlcNAc(b1-4)GlcNAc
Outline: as §1

[34] = biological target: Neu5Ac(a2-6)GlcNAc(b1-4)GlcNAc(b1-4)GlcNAc
Outline: as §1

Neu5Ac(a2-8)Neu5Ac = biological target: Neu5Ac(a2-8)Neu5Ac
Outline: as §1

[35] = biological target: Neu5Ac(a2-8)Neu5Ac(a2-3)Gal(b1-4)Glc
Outline: as §1

[36] = biological target: Neu5Ac(a2-8)Neu5Ac(a2-3)[GalNAc(b1-4)]Gal(b1-4)Glc
Outline: as §1

[37] = biological target: Neu5Ac(a2-8)Neu5Ac(a2-8)Neu5Ac
Outline: as §1

[38] = biological target: Neu5Ac(a2-8)Neu5Ac(a2-8)Neu5Ac(a2-3)Gal(b1-4)Glc
Outline: as §1

[39] = biological target: Neu5Ac(a2-8)Neu5Ac(a2-8)Neu5Ac(a2-3)[GalNAc(b1-4)]Gal(b1-4)Glc
Outline: as §1

[40] = biological target: Neu5Ac(a2-8)Neu5Ac(a2-8)Neu5Ac(a2-8)Neu5Ac(a2-3)[GalNAc(b1-4)]Gal(b1-4)Glc
Outline: as §1

[41] = biological target: Neu5Ac(b2-6)Gal(b1-4)GlcNAc
Outline: as §1

Neu5Ac(b2-6)GalNAc = biological target: Neu5Ac(b2-6)GalNAc
Outline: as §1

[42] = biological target: Neu5Ac9Ac(a2-3)Gal(b1-3)GlcNAc
Outline: as §1

[43] = biological target: Neu5Ac9Ac(a2-3)Gal(b1-4)GlcNAc
Outline: as §1

[44] = biological target: Neu5Ac9Ac(a2-6)Gal(b1-4)GlcNAc
Outline: as §1

[45] = biological target: Neu5Gc(a2-3)Gal(b1-3)GlcNAc
Outline: as §1

[46] = biological target: Neu5Gc(a2-3)Gal(b1-3)[Fuc(a1-4)]GlcNAc
Outline: as §1

Neu5Gc(a2-3)Gal(b1-4)Glc = biological target: Neu5Gc(a2-3)Gal(b1-4)Glc
Outline: as §1

[47] = biological target: Neu5Gc(a2-3)Gal(b1-4)GlcNAc
Outline: as §1

[48] = biological target: Neu5Gc(a2-3)Gal(b1-4)[Fuc(a1-3)]GlcNAc
Outline: as §1

[49] = biological target: Neu5Gc(a2-6)Gal(b1-4)GlcNAc
Outline: as §1

Neu5Gc(a2-6)GalNAc = biological target: Neu5Gc(a2-6)GalNAc
Outline: as §1

[50] = biological target: Neu5Gc(b2-6)Gal(b1-4)GlcNAc
Outline: as §1

B1: SBD (Rhizopus oryzae), P07683 (protein)
chain: ASIPSSASVQLDSYNYDGSTFSGKIYVKNIAYSKKVTVVYADGSDNWNNNGNIIAASFSGPISGSNYEYWTFSASVKGIKEFYIKYEVSGKTYYDNNNSANYQVS
In the case of B1, the “glycan array binding signal (z-score)” value [1] is reported as -0.484, the “glycan array binding signal (z-score)” value [2] is reported as 0.692 and the “glycan array binding signal (z-score)” value [3] is reported as -0.212. For the same binder, the “glycan array binding signal (z-score)” value [4] was 3.37, the “glycan array binding signal (z-score)” value [5] was 0.545 and the “glycan array binding signal (z-score)” value [6] was 0.027. For the same binder, the “glycan array binding signal (z-score)” value [7] was -0.361, the “glycan array binding signal (z-score)” value [8] was 0.019 and the “glycan array binding signal (z-score)” value [9] was -0.264. The “glycan array binding signal (z-score)” value (Neu5Ac(a2-3)GalNAc) was 0.062, the “glycan array binding signal (z-score)” value [10] was -0.492 and the “glycan array binding signal (z-score)” value [11] was -0.178. For the same binder, the “glycan array binding signal (z-score)” value [12] was -0.386, the “glycan array binding signal (z-score)” value [13] was -0.886 and the “glycan array binding signal (z-score)” value [14] was -0.576. The “glycan array binding signal (z-score)” value (Neu5Ac(a2-6)Gal) was -0.115, the “glycan array binding signal (z-score)” value (Neu5Ac(a2-6)Gal(b1-4)Glc) was -0.241 and the “glycan array binding signal (z-score)” value [15] was -0.304. For the same binder, the “glycan array binding signal (z-score)” value [16] was 0.242, the “glycan array binding signal (z-score)” value [17] was -0.457 and the “glycan array binding signal (z-score)” value [18] was -0.28. For the same binder, the “glycan array binding signal (z-score)” value [19] was -0.042, the “glycan array binding signal (z-score)” value [20] was -0.284 and the “glycan array binding signal (z-score)” value [21] was 0.329. The “glycan array binding signal (z-score)” value [22] was -0.232, the “glycan array binding signal (z-score)” value [23] was 0.228 and the “glycan array binding signal (z-score)” value [24] was 0.349. The “glycan array binding signal (z-score)” value [25] was 0.365, the “glycan array binding signal (z-score)” value [26] was -0.481 and the “glycan array binding signal (z-score)” value [27] was -0.661. The “glycan array binding signal (z-score)” value [28] was 0.625, the “glycan array binding signal (z-score)” value [29] was -0.291 and the “glycan array binding signal (z-score)” value [30] was 0.25. For the same binder, the “glycan array binding signal (z-score)” value [31] was -0.322, the “glycan array binding signal (z-score)” value (Neu5Ac(a2-6)GalNAc) was -0.318 and the “glycan array binding signal (z-score)” value [32] was -0.074. For the same binder, the “glycan array binding signal (z-score)” value [33] was 0.158, the “glycan array binding signal (z-score)” value [34] was 0.217 and the “glycan array binding signal (z-score)” value (Neu5Ac(a2-8)Neu5Ac) was -0.114. For the same binder, the “glycan array binding signal (z-score)” value [35] was -0.375, the “glycan array binding signal (z-score)” value [36] was -0.141 and the “glycan array binding signal (z-score)” value [37] was -0.257. For the same binder, the “glycan array binding signal (z-score)” value [38] was -0.33, the “glycan array binding signal (z-score)” value [39] was 0.32 and the “glycan array binding signal (z-score)” value [40] was -0.102. The “glycan array binding signal (z-score)” value [41] was -0.297, the “glycan array binding signal (z-score)” value (Neu5Ac(b2-6)GalNAc) was -0.157 and the “glycan array binding signal (z-score)” value [42] was -0.209. For the same binder, the “glycan array binding signal (z-score)” value [43] was 0.186, the “glycan array binding signal (z-score)” value [44] was -0.195 and the “glycan array binding signal (z-score)” value [45] was -0.163. The “glycan array binding signal (z-score)” value [46] was -0.421, the “glycan array binding signal (z-score)” value (Neu5Gc(a2-3)Gal(b1-4)Glc) was 0.014 and the “glycan array binding signal (z-score)” value [47] was 0.132. For the same binder, the “glycan array binding signal (z-score)” value [48] was -0.487, the “glycan array binding signal (z-score)” value [49] was -0.239 and the “glycan array binding signal (z-score)” value (Neu5Gc(a2-6)GalNAc) was 0.149. The “glycan array binding signal (z-score)” value [50] was -0.221.
